The shares of active, inactive and inconclusive entries below differ from those in the screen. Calls follow the shape of the dose curve; as a rule, active = well fitted inhibition curve with a large enough effect; inconclusive = small, poorly fitted or top-dose-only effect, or effect the other way; inactive = no such curve, though single readings can be large or run the other way. Potencies of inconclusive entries are doubtful fits and often do not repeat.
Test: Confirmatory Assay for General miRNAs Modulators and/or Inhibitors/Activators of miR-21
Settings: HeLa miR-21 FLuc reporter, luminescence, 48 h; series mostly up to 38.3 µM
Method in brief: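 Using DMEM plus 10% FBS, HeLa miR-21-FLuc cells are incubated with test compounds (final up to about 40uM) for 48 hours; firefly luciferase signal is then imaged following reagent-mediated lysis.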

Compound: O=C(CSc1nnc(-c2cccnc2)o1)Nc1cccc(Cl)c1
- Potency: inconclusive: 11.3 µM [falling, partial curve, poor fit]
